Results: the supplement of paper PMC3334620
Whole data set: some 33,000 sequences, median “E-score (-0.5 to 0.5)” near -0.0059, cut for the highest 2% near 0.26. This is one part of the list.

What follows are sequences tested against T1, Cin5 (UniProt P40917) (assay: PBM E-score (8-mer binding enrichment) (E-score (-0.5 to 0.5)); higher = stronger / more preferred TF binding). Conditions: protein concentration: 100 nM; construct: GST-full length.
T1 sequence: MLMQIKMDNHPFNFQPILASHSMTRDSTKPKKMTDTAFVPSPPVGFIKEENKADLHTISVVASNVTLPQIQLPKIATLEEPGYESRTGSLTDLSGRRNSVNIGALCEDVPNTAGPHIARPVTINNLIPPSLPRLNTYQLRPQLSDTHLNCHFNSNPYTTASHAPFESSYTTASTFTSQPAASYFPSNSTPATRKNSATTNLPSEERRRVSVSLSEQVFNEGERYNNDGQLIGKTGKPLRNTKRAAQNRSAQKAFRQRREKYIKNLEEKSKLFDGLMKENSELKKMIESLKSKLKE
Procedure, shortened: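 Universal all-10-mer Agilent arrays, double-stranded by primer extension on fresh or once-stripped slides, were probed with about 100-200 nM GST-tagged yeast transcription factors made by PURExpress. Fluorescent anti-GST detected bound protein, and masliner normalised the scans. E-scores from the Universal PBM Analysis Suite were given to each ungapped eight-base word pooled with its reverse complement.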

Sequence	PBM E-score
AAGGTGCA	-0.0784
CGTAGTCC	-0.266
CCCTTATA	0.0599
AAGGAAAG	-0.00545
AACGGGGC	0.108
CTCAAGTC	-0.196
ATTTTCTC	0.0514
AGTAGCCA	-0.261
AGATTCGA	-0.0633
AAAGACCT	-0.03
GATTGATA	0.213
CTGATAGA	0.0598
CATGCTGC	-0.128
CTCATGCA	0.0777
TTATTAAA	0.278
GGCATGCC	0.0373
CTCTATCC	-0.115
GGTTCTAC	-0.115
CTTGCTCC	-0.183
GTCGACTA	0.189
AATTCAAG	0.0197
ACTTGGGA	-0.175
GCTCAAAA	-0.00649
ATAAGATG	0.213
CATATGTC	-0.08

Sequence	PBM E-score
ATACCACC	0.149
CATGCTAG	-0.0431
GGCTCACC	-0.274
TGCAACAA	0.0117
GTATTAGA	0.234
GCGGAGCC	-0.153
TCAAACCA	0.193
ACCAGCAG	-0.195
CACTCTAC	0.0729
CGGTGGTC	-0.098
ACATTCAT	0.147
AGCCAGGA	-0.0826
ATCGGGCA	-0.161
GTAGACAC	0.0248
ACCGATGC	0.0455
CAAGAGCG	-0.00062
ATGACTAA	0.235
CCTGGGGA	-0.302
CGGTGTGA	0.0609
GAATGCGC	0.124
ATATGATC	0.258
AGAGCGGC	0.00132
ATTGCCAA	0.0338
GTGAAGCA	0.00998
GCCAAAGA	-0.109

Sequence	PBM E-score
ACAGGCAA	0.0402
GACGGGTA	-0.138
CATAGGGC	-0.175
CATTCAGG	-0.164
AATGTGGA	0.0413
ACCGTATG	-0.00304
ACCAAGAT	0.146
AGTGAAGG	0.0101
CCACCAAA	-0.0215
CCATCTAG	-0.126
CGTTTACA	-0.0821
GATACTGA	0.124
GCTGCTAC	-0.221
GGGCCGAC	-0.23
CCCATTAC	0.137
ACTCGGCG	-0.141
CTTGCTAA	-0.148
CCGGGGCA	-0.193
AAAACCCT	0.0401
CCATTCAC	-0.00131
AGCCCCAT	-0.0677
CCATGGGA	0.0434
CCTGGGTA	-0.277
CATGAGAA	0.104
CTTCCGTC	-0.0172

Sequence	PBM E-score
ACCAACCA	-0.0451
CGTCGTTC	0.151
CAGGGACC	-0.251
CATGCGAG	0.0486
AGCTTCAG	-0.115
AAGAAAGG	-0.165
AGAAAATG	-0.00112
GCTGAGCC	-0.0662
ACAGGGAT	0.0409
ATCGAAGC	0.00395
CACACCGA	-0.05
GGTTGACA	-0.0682
ACATAACT	0.197
CAGGTAAA	0.216
ACGCGAGA	0.087
GCAAACGA	0.0468
CTATCTTC	0.157
GAGCAAAC	0.0584
AGGACTAT	-0.0847
GAAGCGGA	0.0323
CCCGGCGA	-0.0713
CCCCTAAC	-0.13
CATCACAG	-0.0436
ATGACCAT	0.11
CACGAAGG	-0.169

Sequence	PBM E-score
AACGACGT	0.0511
CTGCATGA	-0.106
CCAACGCG	-0.086
AACGCCAT	0.075
AGTATATG	0.183
CATTGACA	-0.104
CCCTCGTA	-0.00454
AGGGCGTG	-0.224
CGCCCGGC	-0.149
GGAACCGA	0.00157
CCAATGAA	-0.134
CCCCCTAC	-0.394
CGTGTATC	0.0236
ACCACTGA	-0.186
ATATAGTC	0.258
GCTGAACC	-0.16
AAGATTCC	0.115
GGAGTACC	-0.0274
ATGAAATC	0.179
ACACCCGA	0.0844
CGAGAGAA	-0.0194
CTCGTTTC	0.00595
CGAGGCAC	-0.317
CCGTAATA	0.203
GGAATTAC	0.223

Sequence	PBM E-score
AATAGGAT	0.231
CGCTCTCA	-0.124
TACGTTGA	0.218
AGAATCCT	-0.158
TAGTGTCA	0.107
AGCTTCAA	-0.0385
TCCCGGAA	0.216
ATTTTAAC	-0.0252
ATTCACCC	0.111
AAGACAGC	-0.111
GAAATCGA	0.0763
CCCTTCGA	-0.257
AGAACTCC	-0.0874
GAGGTTGC	-0.195
GTGGGGTA	0.181
ACTCGTTG	-0.0803
AACATGAA	0.0944
TGTTCGAA	-0.0689
AAGCAATC	0.165
AAAGTAGC	-0.0578
ACTCTGTA	-0.0694
ATGACGGG	0.0538
ATTACATG	0.297
CATGGAAG	-0.0265
AACCCCCT	-0.473

Sequence	PBM E-score
CGTTATCA	0.15
CTTATGAA	0.0936
TACAGTAA	0.14
AAGTTTTA	0.165
GTTCGAAA	-0.00462
ATAGGTTC	0.00593
CCGCCATA	0.0972
CATCTCCG	0.2
AAGCCACA	-0.104
CCCACTCC	-0.0523
ATTCTTCC	0.0301
GCACACCA	-0.117
CCCGGAGC	0.00401
GTCCATTA	0.109
TCGCGTCA	0.102
ATGTCTGC	-0.125
AACGACCC	-0.0429
GCACTATA	0.0376
CGCGATAA	0.0927
CAGATGGA	0.234
ACTACACA	0.217
ATGAAAAC	0.135

A different layout for part of the listing above.
AAGTTTTA
  PBM E-score: 0.165
GTTCGAAA
  PBM E-score: -0.00462
ATAGGTTC
  PBM E-score: 0.00593
CCGCCATA
  PBM E-score: 0.0972
